A short description of this data set: in vitro. The note with it: rat, microsomes.

In turn, `CC(C)NCC(O)COc1ccc(CC(N)=O)cc1` (stereo not shown) [Atenolol] showed a microsomal CLint of 0.15 µL/min/mg.

Broadly, the microsomal CLint is the rate of metabolic loss divided by the concentration.

(Values after patent publication US10370364B1, “Substituted chromenes for treatment of fibrosis or non-alcoholic steatohepatitis” (OSTEONEUROGEN INC., priority 2018, dated 2019).)
